PubChem BioAssay AID686943 – Drosophila RNAi Screening Center, 2013

- Aim: 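Fly genes whose loss alters ERK activation after insulin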 (primary screen)
- Cells: Drosophila S2R+ haemocyte-like cells expressing YFP-tagged ERK (Rolled)
- Reagents: long dsRNA against Drosophila genes
- Challenge: insulin stimulation versus unstimulated cells; dose and duration not given
- Measured: 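Per-plate z-scores of phospho-ERK immunostaining normalised to YFP-tagged ERK, measured with and without insulin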
- Reading the numbers: replicate 1, z-score of dpERK with insulin and replicate 2, z-score of dpERK with insulin: higher = more active ERK per ERK-YFP after insulin
In all, the deposit lists about 23,000 reagents; shown is an unselected part of those that have a named target and a result. 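Extra replicates exist only for a retested subset of genes; insulin dose and duration not given; both raised and lowered dpERK matter.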 A plus sign joins genes that one reagent is predicted to hit. Not all columns of the deposit are shown. Not stated in the record: the amount of reagent, the time to read-out.

target	dsRNA	replicate 1, z-score of dpERK with insulin	replicate 2, z-score of dpERK with insulin
CIA30	DRSC16266	-0.07	0.28
CG5521	DRSC15828	-0.31	0.05
RpL34b	DRSC16475	-0.35	0.06
Lim3	DRSC02475	1.09	-0.89
Lim3	DRSC03363	-1.3	-0.24
Lim3	DRSC22183	-0.26	-0.25
Lim3	DRSC22650	-1.19	-2.2
CG5934	DRSC15922	-0.22	-0.11
ATPsynG	DRSC02928	0.11	-1.66
CG31760	DRSC02590	-0.69	-0.37
CG43342	DRSC13561	1.8	-0.45
vn	DRSC11408	-1.16	-0.57

Next part (3 carried over from the part before).
target	dsRNA	replicate 1, z-score of dpERK with insulin	replicate 2, z-score of dpERK with insulin
CG31760	DRSC02590	-0.69	-0.37
CG43342	DRSC13561	1.8	-0.45
vn	DRSC11408	-1.16	-0.57
RyR	DRSC07543	0.09	0.18
CG6178	DRSC15984	0.37	0.21
CG43349	DRSC00039	0.25	-0.27
CG14195	DRSC19550	-0.81	-0.24
PGRP-SB1	DRSC11090	-0.36	-0.23
CG33791 + CG12105 + CG18170	DRSC08387	0.29	-0.46
CG32036	DRSC10362	-0.63	-0.08
Prx2	DRSC20256	-0.34	0.02
eIF3g2	DRSC14275	-0.66	0.58
Tmtc2	DRSC00272	-0.81	-0.37
mthl11	DRSC12779	-0.94	-0.5
